Assay results: patent publication US20130252890A1, “6,7-DIHYDRO-5H-BENZO[7]ANNULENE DERIVATIVES, PROCESS FOR PREPARATION THEREOF, PHARMACEUTICAL PREPARATIONS COMPRISING THEM, AND THE USE THEREOF FOR PRODUCTION OF MEDICAMENTS” (BAYER INTELLECTUAL PROPERTY GMBH, priority 2010, published 2013)
pIC50: −log10 of the molar value. Structures were worked out from names or drawings and are uncertain.

Chains of the proteins cited; added tags and fusions are not shown.
UniProt P03372, whole entry: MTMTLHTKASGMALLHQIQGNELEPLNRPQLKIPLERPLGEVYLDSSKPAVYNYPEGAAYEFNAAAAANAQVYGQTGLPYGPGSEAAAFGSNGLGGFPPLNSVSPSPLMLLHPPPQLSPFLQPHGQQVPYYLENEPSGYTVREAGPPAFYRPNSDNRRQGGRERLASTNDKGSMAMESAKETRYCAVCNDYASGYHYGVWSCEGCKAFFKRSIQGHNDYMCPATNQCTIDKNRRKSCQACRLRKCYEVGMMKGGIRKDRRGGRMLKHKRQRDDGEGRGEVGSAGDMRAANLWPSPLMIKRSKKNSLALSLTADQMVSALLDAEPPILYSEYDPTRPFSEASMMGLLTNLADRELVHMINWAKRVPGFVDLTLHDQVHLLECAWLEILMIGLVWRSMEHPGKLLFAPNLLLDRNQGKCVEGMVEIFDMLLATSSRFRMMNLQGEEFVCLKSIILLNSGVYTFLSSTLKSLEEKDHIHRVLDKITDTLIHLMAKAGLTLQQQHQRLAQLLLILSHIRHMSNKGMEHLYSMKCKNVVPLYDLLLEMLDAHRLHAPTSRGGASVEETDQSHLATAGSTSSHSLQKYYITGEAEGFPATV

Biological target: oestrogen receptor (ER) (Homo sapiens, UniProt P03372)
Experiment: Anti-oestrogenic action in MVLN cells (inhibition of estradiol-induced luciferase)
Type: cell-based
Details: read-out: Antioestrogenic action in vitro: MVLN transactivation antagonism IC50, inhibition of estradiol-induced luciferase signal, value of Ex. 44 is a mean value
Text: The anti-oestrogenic action of the claimed pharmacological compounds was investigated in so-called MVLN cells in vitro. MVLN cells are derivatives of the hormone-responsive MCF7 breast cancer cells known by a person skilled in the art. These MVLN cells express, along with the functional oestrogen receptor (ER), a reporter construct, which under ER-activation expresses luciferase. Determination of the activity of the induced luciferase permits a direct conclusion on the oestrogen properties of substances. To investigate the anti-oestrogenic properties of the pharmacological compounds, they were investigated in the presence of oestrogen for their potential for inhibiting the luciferase signal induced by estradiol. The claimed pharmacological test substances were investigated in MVLN cells for their anti-oestrogenic potential, as described (see Table 2).

| Compound | pIC50 |
| --- | --- |
| CN(CCCCCCC1=C(c2ccc(F)cc2)CCCc2cc(O)ccc21)CCCCCS(=O)(=O)CCC(F)(F)F | 7.51 |
| CN(CCCCCCC1=C(c2ccc(F)c(F)c2)CCCc2cc(O)ccc21)CCCCS(=O)(=O)CCC(F)(F)C(F)(F)F | 7.77 |
